Results on 27 targets are retold here after the supplement of paper PMC12819154, “High-throughput peptide-centric local stability assay extends protein–ligand identification to membrane proteins, tissues and bacteria” (Nature Structural & Molecular Biology, 2025).

By UniProt entry, the sequences of proteins in these tests, tags left out. Where a name states a change or a piece, a line headed by the entry shows the natural chain unless it says otherwise.
UniProt Q8NC60: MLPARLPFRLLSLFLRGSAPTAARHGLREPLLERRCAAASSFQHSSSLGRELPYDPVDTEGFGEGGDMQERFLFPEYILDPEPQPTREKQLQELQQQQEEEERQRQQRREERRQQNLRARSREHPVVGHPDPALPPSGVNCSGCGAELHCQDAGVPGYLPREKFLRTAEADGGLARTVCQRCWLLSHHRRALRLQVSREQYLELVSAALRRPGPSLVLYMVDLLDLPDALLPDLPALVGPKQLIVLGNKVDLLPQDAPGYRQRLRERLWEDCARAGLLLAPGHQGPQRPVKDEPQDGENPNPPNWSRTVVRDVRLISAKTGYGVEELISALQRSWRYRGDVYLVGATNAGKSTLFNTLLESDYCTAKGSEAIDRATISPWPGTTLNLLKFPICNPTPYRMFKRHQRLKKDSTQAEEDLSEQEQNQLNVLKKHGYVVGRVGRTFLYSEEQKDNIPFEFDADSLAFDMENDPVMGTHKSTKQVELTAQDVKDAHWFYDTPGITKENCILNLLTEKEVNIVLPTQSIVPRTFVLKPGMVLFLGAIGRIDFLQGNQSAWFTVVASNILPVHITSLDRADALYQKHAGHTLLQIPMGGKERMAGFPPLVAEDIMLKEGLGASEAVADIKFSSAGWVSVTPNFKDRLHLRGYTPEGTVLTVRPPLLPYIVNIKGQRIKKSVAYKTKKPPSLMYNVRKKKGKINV
UniProt Q8N6F7: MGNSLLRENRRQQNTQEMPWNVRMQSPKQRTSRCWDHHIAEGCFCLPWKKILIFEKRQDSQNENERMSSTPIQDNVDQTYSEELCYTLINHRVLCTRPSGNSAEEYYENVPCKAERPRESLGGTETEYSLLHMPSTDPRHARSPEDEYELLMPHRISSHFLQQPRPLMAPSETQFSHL
UniProt Q8NFX7: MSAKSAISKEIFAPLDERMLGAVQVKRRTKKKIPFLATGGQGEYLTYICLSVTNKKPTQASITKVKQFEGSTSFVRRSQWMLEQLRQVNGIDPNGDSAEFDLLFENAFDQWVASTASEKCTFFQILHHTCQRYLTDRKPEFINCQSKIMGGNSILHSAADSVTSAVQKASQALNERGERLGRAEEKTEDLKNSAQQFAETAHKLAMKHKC
UniProt Q8NDC0: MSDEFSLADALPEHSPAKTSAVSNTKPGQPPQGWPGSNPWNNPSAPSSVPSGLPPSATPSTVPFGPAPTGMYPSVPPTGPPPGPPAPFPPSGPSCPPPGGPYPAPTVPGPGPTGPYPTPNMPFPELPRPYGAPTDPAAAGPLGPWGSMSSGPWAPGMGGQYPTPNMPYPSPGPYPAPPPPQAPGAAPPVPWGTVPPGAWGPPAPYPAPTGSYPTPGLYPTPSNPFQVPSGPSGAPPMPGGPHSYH
UniProt Q8N5W9: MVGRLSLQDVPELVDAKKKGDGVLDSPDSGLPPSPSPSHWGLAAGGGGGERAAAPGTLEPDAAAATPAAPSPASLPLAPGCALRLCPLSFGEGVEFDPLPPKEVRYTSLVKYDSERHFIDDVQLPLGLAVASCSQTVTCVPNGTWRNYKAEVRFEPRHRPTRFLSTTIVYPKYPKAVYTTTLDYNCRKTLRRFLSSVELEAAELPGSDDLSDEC
UniProt Q8N4N3: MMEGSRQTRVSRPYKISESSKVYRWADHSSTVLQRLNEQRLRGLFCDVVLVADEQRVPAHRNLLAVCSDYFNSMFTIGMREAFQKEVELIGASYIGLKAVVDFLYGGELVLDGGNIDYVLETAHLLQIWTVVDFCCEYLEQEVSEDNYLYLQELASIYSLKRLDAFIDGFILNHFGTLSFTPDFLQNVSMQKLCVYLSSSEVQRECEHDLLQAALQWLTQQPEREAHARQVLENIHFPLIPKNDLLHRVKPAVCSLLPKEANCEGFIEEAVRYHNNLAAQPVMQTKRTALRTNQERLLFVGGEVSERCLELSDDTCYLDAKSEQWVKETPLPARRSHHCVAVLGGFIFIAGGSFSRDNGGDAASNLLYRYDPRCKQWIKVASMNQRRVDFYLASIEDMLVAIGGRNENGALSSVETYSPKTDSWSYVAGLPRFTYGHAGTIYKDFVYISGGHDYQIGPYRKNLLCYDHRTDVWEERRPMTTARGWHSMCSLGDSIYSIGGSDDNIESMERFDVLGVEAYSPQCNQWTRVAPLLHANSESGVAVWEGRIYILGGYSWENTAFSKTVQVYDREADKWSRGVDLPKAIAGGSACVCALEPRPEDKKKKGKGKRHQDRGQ
UniProt Q8NG08: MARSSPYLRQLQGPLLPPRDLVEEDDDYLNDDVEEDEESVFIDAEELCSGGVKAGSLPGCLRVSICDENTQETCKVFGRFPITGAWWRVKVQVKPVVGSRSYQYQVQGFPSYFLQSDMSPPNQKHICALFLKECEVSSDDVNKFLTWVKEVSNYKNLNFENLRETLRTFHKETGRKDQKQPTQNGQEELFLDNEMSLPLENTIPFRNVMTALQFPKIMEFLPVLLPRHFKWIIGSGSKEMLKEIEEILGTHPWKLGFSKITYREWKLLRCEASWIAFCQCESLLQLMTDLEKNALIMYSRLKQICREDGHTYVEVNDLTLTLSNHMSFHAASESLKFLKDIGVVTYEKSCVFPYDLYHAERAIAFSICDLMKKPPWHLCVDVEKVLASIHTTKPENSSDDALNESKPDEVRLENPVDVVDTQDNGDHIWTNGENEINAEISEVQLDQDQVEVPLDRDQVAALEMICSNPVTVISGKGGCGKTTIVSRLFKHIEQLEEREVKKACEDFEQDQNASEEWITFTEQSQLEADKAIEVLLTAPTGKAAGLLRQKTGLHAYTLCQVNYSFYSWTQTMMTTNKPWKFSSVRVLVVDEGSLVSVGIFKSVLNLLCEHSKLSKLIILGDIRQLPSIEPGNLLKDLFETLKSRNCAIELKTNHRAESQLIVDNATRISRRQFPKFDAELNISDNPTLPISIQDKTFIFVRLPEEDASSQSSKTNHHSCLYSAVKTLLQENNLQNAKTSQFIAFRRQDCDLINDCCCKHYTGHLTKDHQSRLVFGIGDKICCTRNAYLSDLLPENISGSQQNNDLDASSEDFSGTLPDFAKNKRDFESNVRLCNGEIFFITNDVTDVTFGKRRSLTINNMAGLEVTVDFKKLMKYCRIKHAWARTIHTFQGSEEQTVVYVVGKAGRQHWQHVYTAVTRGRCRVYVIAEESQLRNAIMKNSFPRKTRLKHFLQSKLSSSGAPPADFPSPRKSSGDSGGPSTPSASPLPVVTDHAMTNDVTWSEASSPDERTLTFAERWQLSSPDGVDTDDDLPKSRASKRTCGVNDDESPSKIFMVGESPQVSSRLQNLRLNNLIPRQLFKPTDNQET
UniProt Q8NC96: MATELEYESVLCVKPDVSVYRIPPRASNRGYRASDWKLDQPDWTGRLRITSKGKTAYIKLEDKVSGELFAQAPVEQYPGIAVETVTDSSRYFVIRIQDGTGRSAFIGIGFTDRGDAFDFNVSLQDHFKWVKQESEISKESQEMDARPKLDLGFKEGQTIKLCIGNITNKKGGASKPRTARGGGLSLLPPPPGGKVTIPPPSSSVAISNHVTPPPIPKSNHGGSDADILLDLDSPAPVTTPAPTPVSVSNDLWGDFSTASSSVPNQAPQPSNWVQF
UniProt Q8NA72: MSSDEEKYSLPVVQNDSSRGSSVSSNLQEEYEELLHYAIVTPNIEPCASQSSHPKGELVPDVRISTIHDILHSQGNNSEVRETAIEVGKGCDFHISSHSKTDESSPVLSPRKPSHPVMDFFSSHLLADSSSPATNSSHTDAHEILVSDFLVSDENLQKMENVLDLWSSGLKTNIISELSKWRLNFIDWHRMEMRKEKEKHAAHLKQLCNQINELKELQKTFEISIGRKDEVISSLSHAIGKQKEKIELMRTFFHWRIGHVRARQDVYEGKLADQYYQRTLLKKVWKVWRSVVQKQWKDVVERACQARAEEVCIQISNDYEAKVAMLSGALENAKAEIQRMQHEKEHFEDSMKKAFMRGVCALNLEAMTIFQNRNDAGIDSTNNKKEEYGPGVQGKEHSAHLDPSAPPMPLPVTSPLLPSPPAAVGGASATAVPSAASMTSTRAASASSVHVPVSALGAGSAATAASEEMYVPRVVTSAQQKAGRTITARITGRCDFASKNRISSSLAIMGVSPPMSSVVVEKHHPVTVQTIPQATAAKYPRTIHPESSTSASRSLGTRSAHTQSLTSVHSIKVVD
UniProt Q8N5H3: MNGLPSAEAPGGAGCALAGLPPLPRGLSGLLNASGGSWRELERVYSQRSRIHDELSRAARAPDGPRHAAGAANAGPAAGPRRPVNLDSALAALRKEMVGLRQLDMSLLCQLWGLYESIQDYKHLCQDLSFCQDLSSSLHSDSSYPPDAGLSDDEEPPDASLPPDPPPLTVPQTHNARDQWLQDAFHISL
UniProt Q8TAM1: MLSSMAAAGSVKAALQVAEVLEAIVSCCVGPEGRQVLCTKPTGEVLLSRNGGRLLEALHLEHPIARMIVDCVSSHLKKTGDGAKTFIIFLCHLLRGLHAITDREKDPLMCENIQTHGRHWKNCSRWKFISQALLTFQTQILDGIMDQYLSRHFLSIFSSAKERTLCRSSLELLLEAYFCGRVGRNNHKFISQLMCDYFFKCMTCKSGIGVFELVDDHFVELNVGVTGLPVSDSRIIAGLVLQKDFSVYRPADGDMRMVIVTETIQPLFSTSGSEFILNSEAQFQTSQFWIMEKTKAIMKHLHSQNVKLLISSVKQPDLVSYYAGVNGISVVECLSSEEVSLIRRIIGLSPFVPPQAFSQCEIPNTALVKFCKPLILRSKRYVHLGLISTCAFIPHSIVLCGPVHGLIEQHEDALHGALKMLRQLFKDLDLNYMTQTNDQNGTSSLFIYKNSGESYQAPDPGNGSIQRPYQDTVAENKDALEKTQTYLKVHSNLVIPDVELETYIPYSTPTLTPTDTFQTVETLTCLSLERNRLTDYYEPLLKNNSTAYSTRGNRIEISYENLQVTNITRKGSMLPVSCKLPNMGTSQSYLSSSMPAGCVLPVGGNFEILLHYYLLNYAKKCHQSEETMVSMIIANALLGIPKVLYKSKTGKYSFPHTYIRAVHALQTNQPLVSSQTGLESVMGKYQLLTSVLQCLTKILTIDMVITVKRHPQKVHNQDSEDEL
UniProt Q8N531: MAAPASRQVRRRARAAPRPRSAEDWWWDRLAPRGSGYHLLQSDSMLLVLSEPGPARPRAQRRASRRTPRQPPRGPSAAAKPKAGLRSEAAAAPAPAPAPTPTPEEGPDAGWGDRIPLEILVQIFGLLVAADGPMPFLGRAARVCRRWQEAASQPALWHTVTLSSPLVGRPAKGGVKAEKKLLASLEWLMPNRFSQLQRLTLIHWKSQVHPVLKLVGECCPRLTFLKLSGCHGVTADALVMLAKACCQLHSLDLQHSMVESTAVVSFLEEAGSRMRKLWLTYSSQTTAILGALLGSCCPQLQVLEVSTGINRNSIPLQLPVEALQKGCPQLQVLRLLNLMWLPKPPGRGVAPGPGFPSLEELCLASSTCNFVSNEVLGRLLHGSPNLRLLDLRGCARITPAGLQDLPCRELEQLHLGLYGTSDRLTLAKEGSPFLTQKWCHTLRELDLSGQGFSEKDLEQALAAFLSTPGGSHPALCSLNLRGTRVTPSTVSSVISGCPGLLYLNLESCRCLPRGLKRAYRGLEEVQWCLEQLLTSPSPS
UniProt Q8N4Y2: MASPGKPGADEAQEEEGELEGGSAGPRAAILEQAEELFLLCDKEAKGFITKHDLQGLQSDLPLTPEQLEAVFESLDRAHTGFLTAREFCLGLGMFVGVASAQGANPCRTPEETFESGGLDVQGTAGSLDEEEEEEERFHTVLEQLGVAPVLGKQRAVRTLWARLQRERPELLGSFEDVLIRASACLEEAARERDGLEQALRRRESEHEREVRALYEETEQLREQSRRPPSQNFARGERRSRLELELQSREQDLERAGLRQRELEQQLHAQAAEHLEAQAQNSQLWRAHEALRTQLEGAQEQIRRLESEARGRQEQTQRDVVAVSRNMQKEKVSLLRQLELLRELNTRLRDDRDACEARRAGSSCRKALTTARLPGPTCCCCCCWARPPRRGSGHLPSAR
UniProt Q8NB15: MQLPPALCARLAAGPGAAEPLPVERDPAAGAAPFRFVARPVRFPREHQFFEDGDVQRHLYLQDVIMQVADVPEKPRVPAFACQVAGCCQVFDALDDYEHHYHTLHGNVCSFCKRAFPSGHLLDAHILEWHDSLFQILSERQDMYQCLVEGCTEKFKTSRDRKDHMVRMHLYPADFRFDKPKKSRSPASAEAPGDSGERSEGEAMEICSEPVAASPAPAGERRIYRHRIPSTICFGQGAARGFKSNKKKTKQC
UniProt Q8NDD1: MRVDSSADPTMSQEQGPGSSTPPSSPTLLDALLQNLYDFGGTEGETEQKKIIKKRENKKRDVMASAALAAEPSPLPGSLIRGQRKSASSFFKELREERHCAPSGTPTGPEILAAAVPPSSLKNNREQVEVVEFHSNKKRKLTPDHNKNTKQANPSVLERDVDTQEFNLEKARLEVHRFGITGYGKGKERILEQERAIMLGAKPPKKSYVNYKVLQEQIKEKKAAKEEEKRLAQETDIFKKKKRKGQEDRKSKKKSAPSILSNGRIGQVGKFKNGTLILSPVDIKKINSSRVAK

Some of the results follow. Most values lie at the level of the controls, where differences are scatter.

Compound in this experiment: CN[C@@H]1C[C@H]2O[C@@](C)([C@@H]1OC)n1c3ccccc3c3c4c(c5c6ccccc6n2c5c31)C(=O)NC4 [staurosporine]
Put plainly: log2 fold change of tryptic peptide abundance, ligand vs vehicle (limited proteolysis) (log2 ratio); higher = more trypsin-susceptible (destabilized). The conditions noted are these: ligand concentration: 20 uM; sample: K562 cleared lysate; digestion: 4 min, 22 C (HT-PELSA RT4min, Orbitrap Astral).
Regarding “UniProt Q8NC60 (peptide sequence: AGLLLAPGHQGPQRPVK, peptide start residue: 275)”, the log2 fold change was -0.857. As for “UniProt Q8N6F7 (peptide sequence: ILIFEKR, peptide start residue: 51)”, the figure is 0.263; as for “USP38 (peptide sequence: MDKILEGLVSSSHPLPLKR, peptide start residue: 1) (UniProt Q8NB14)”, 0.2. As for “UniProt Q8NDB6 (peptide sequence: HRDHMAPYAVGR, peptide start residue: 98)”, the figure is 0.435.

On to “STXBP6 (peptide sequence: NSAQQFAETAHK, peptide start residue: 192) (UniProt Q8NFX7)”, for which the log2 fold change is 0.725. As for “ZGPAT (peptide sequence: FDSLLLR, peptide start residue: 250) (UniProt Q8N5A5)”, the figure is -0.154; as for “MAPK1IP1L (peptide sequence: SDEFSLADALPEHSPAK, peptide start residue: 2) (UniProt Q8NDC0)”, -0.0954.

“RFLNB (peptide sequence: FLSTTIVYPK, peptide start residue: 163) (UniProt Q8N5W9)”: the log2 fold change was 0.184. As for “KLHL36 (peptide sequence: QVLENIHFPLIPK, peptide start residue: 230) (UniProt Q8N4N3)”, the figure is -0.111; as for “UniProt Q8N554 (peptide sequence: APGASMERPSAEER, peptide start residue: 98)”, -0.557; as for “HELB (peptide sequence: TCGVNDDESPSK, peptide start residue: 1040) (UniProt Q8NG08)”, 0.476. As to “NUP35 (peptide sequence: SPLLAGGSPPQPVVPAHK, peptide start residue: 66) (UniProt Q8NFH5)”, the log2 fold change amounted to 0.235.

Take “NECAP1 (peptide sequence: ESQEMDARPK, peptide start residue: 139) (UniProt Q8NC96)”: the log2 fold change came out at 0.433. As for “UniProt Q8NCW5 (peptide sequence: SGPTWWGPQR, peptide start residue: 31)”, the figure is 0.0201; as for “TTL (peptide sequence: YLEHPLLLEPGHR, peptide start residue: 185) (UniProt Q8NG68)”, 0.379; as for “POC5 (peptide sequence: KEEYGPGVQGK, peptide start residue: 385) (UniProt Q8NA72)”, 1. “UniProt Q8N5H3 (peptide sequence: RPVNLDSALAALRK, peptide start residue: 82)”: the log2 fold change is -0.0913.

With “IQUB (peptide sequence: QYAMQRPNDDSLAFLDKIK, peptide start residue: 98) (UniProt Q8NA54)”, the log2 fold change was -0.191.

On to “UniProt Q8TAM1 (peptide sequence: MIVDCVSSHLK, peptide start residue: 67)”, for which the log2 fold change is -0.315. As for “UniProt Q8N531 (peptide sequence: LSGCHGVTADALVMLAK, peptide start residue: 227)”, the figure is 0.463; as for “ZBTB34 (peptide sequence: ESQITEVK, peptide start residue: 228) (UniProt Q8NCN2)”, 0.162; as for “CRACR2B (peptide sequence: TQLEGAQEQIR, peptide start residue: 293) (UniProt Q8N4Y2)”, 0.399.

Take “UniProt Q8NDF8 (peptide sequence: DAPLSDLCR, peptide start residue: 564)”: the log2 fold change was found to be 0.191. As for “ZNF511 (peptide sequence: HLYLQDVIMQVADVPEKPR, peptide start residue: 58) (UniProt Q8NB15)”, the figure is 0.409. Consider “BAHD1 (peptide sequence: LASLNAEALNNLLLER, peptide start residue: 119) (UniProt Q8TBE0)”, for which the log2 fold change is -0.505. As for “UniProt Q8N6R0 (peptide sequence: QRPADAEDLPAAPGQSIDK, peptide start residue: 448)”, the figure is 0.392. As for “C1orf131 (peptide sequence: KLTPDHNK, peptide start residue: 140) (UniProt Q8NDD1)”, the log2 fold change is -0.398.
